Reference: article PMC7819943, “Rice protein-binding microarrays: a tool to detect cis-acting elements near promoter regions in rice”
This is one part of the list.

Each sequence was assayed against T1, OsSMF1 (Oryza sativa, UniProt Q6ZLB0 1-436) (assay: protein-binding microarray (RPBM); PBS, 2% BSA, 51.3 ng/ul salmon testes DNA, 50 uM zinc acetate, 200 nM TF, 25 C, 1 h; high values mean tight binding). Details: protein: recombinant; tags: N-terminal polyhistidine and DsRed monomer fusion (pET32a); chain copies: 2; label: CyDye5-dUTP incorporated in the synthesized complementary strand; 3' TTTTT single-stranded linker to array surface; dsDNA, one strand shown.
T1 sequence: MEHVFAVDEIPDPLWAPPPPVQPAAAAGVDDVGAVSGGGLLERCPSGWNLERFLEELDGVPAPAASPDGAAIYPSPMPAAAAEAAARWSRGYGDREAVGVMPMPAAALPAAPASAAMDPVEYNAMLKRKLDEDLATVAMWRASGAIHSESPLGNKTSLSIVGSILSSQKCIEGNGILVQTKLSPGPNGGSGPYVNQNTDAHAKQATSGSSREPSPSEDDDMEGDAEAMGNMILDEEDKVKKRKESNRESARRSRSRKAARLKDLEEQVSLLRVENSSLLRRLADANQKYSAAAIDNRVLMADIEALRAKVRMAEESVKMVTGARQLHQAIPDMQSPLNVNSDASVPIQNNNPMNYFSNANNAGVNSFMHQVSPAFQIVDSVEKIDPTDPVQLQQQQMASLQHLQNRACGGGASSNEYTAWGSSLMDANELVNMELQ
Outline: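 Binding signal is reported as fluorescence intensity per feature (arbitrary units) from an Axon 4000B scanner. Incubation used 200 nM of each Ni–NTA-purified, N-terminally polyhistidine- and DsRed-fused transcription factor from E. coli BL21-CodonPlus on a double-stranded custom Agilent array for 1 h at 25 °C, with 50 µM zinc acetate in the buffer, followed by washing.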

In order of rising binding signal:
1. GGCTTCTCCGGCGCCGCGACACGGACACCGAGGCGACGGCCGGAGTCACCTAGTGCAG  3170 fluorescence intensity (a.u.)
2. CCTGCATTTTCAGTAATCTGAACATGACAACATACTTGTGCGGAGTCACCTAGTGCAG  3200 fluorescence intensity (a.u.)
3. GAGAGGCTGATCCGGTCGTCCCTGCGCATCAGCGTGGGCGCGGAGTCACCTAGTGCAG  3200 fluorescence intensity (a.u.)
4. CAAAATATGCCTTTCCCGGTGGCTAGACTAACCGCTAGCGCGGAGTCACCTAGTGCAG  3220 fluorescence intensity (a.u.)
5. AGAGGGAGGAGGAAGAAGGTCTGACATGTGGGCCCCACATCGGAGTCACCTAGTGCAG  3230 fluorescence intensity (a.u.)
6. GAACCCTCACTCTGTGCGTCTACTTGGCAAGGGGCTCGTGCGGAGTCACCTAGTGCAG  3260 fluorescence intensity (a.u.)
7. ACTGTAATAGTGTCATACTATGATGGGATTACATTGGACGCGGAGTCACCTAGTGCAG  3300 fluorescence intensity (a.u.)
8. GCGCCCATCCCTCGTCGGCTCGTCGCTGAATCTGATGGATCGGAGTCACCTAGTGCAG  3300 fluorescence intensity (a.u.)
9. GTGGGGCCTGGCTGCGATGTGTCGATGTGACAGCAACAGCCGGAGTCACCTAGTGCAG  3380 fluorescence intensity (a.u.)
10. GTCTGCAACACGAAATGTAATGTTGACACGCAAATGCTAGCGGAGTCACCTAGTGCAG  3420 fluorescence intensity (a.u.)
11. TCTCCGAGAGGATTAGGCAATGACCGGGGAGAAGCAACGCCGGAGTCACCTAGTGCAG  3450 fluorescence intensity (a.u.)
12. CCACATGTCATTGTCACCTCCTAATTAACCCCGAAGGCAACGGAGTCACCTAGTGCAG  3490 fluorescence intensity (a.u.)
13. GTACGAGTCATGACGGCCAGCTCATCTTATCTTAAAACAACGGAGTCACCTAGTGCAG  3510 fluorescence intensity (a.u.)
14. GCAAGATAATACACCACCTGTCAGTCATAGCTGTCCCCAGCGGAGTCACCTAGTGCAG  3520 fluorescence intensity (a.u.)
15. GCCGGCCGCGCGCCGCCGCCGACCACGCGTCCATGAACCGCGGAGTCACCTAGTGCAG  3550 fluorescence intensity (a.u.)
16. GCGCTATATATACGCACGGCTAGTCAGCCTCCTGTGCCACCGGAGTCACCTAGTGCAG  3800 fluorescence intensity (a.u.)
17. CAAATGATTCCACTTGTCATTTGCATATGAGTGATATGTGCGGAGTCACCTAGTGCAG  3910 fluorescence intensity (a.u.)
18. GAGATTTAGGTGACAGAATAAGACGTGGCTGGACGTAAGACGGAGTCACCTAGTGCAG  3950 fluorescence intensity (a.u.)
19. TAAACAAACACAGTTGACATGTGTTCCTGTCATGCAGGCCCGGAGTCACCTAGTGCAG  4050 fluorescence intensity (a.u.)
20. ATAATTTGGTGGGCGCACCACTAACGTGTATATTTAGTGACGGAGTCACCTAGTGCAG  4090 fluorescence intensity (a.u.)
21. CACTGTACATGGTCAAATATAATTTCGTGTCAGTCACCTTCGGAGTCACCTAGTGCAG  4150 fluorescence intensity (a.u.)
22. GCCCATCTCTACGCCAATCCAACGTGCACGCCACCATGTGCGGAGTCACCTAGTGCAG  4280 fluorescence intensity (a.u.)
23. CACTCTAATAACGTGTCGTGTTCTTCATGCTGAAATGTCTCGGAGTCACCTAGTGCAG  4330 fluorescence intensity (a.u.)
24. AGAGACCATGAAAGACTTAGCCACGACATCGTCCAACATGCGGAGTCACCTAGTGCAG  4620 fluorescence intensity (a.u.)
25. AAAACGGCCTCCCCTAATCTTGCGTGTCCGGCCAATTGCACGGAGTCACCTAGTGCAG  4660 fluorescence intensity (a.u.)
26. TCATTGCCGTGGTCCACGCGTCGCACGACTGAGTACCGTGCGGAGTCACCTAGTGCAG  4850 fluorescence intensity (a.u.)
27. TAGCAGAGATGCTAAAGTAGTAGAGATGACGTCGGGCTTCCGGAGTCACCTAGTGCAG  5570 fluorescence intensity (a.u.)
28. GGAAAGTGGACAATTAAATCAAGCGATGATGTGGATGTGGCGGAGTCACCTAGTGCAG  5830 fluorescence intensity (a.u.)
29. GTTACATCAACGTGATGCGTCAGCCTCAGGCTGGGAATCACGGAGTCACCTAGTGCAG  6140 fluorescence intensity (a.u.)
30. GCATGTTCAGGTCGAAGCACGCCACGCAGCCGTGGCAGACCGGAGTCACCTAGTGCAG  6240 fluorescence intensity (a.u.)
31. GTTAGCGATTGCCAGAGCGCGCGTCACCGCTTGCTGAGGCCGGAGTCACCTAGTGCAG  7120 fluorescence intensity (a.u.)
32. AGGGGTCGTCGTCATCGCCAGCGTGGCACGCCTTCCAGCCCGGAGTCACCTAGTGCAG  9200 fluorescence intensity (a.u.)
33. GCTCCGCCGGTTCGCCTTCGACAGCATCTGCCACGTCGCGCGGAGTCACCTAGTGCAG  9720 fluorescence intensity (a.u.)
34. CTAATCCTTTTGGACATTACGTGGCTGCTATCTGAACCACCGGAGTCACCTAGTGCAG  10100 fluorescence intensity (a.u.)
35. ACAACCCCACCACGTGGCGTAAATACACGTCGAGGCGAGGCGGAGTCACCTAGTGCAG  12500 fluorescence intensity (a.u.)
36. AGGCTCCTACTGTGATATATTAATATATAATAAAGAACAACGGAGTCACCTAGTGCAG  13000 fluorescence intensity (a.u.)
37. AAGAGGGAGAATGAATGGTTAGAGTTTAAATGTGTCTTTTCGGAGTCACCTAGTGCAG  22400 fluorescence intensity (a.u.)
38. CGGTCGACCCGCCGTCTGCCACGTCAGCTTGCCGCCCCAGCGGAGTCACCTAGTGCAG  22500 fluorescence intensity (a.u.)
39. GGCAGTTTAACTAGATATTTAAAACTCTGCTATATATACGCGGAGTCACCTAGTGCAG  23700 fluorescence intensity (a.u.)
40. CATGGCAGCAGCATTCTTTCGTTTTCGTGCAGCATTGTCACGGAGTCACCTAGTGCAG  28300 fluorescence intensity (a.u.)
41. AGTATCTCGAAACAAAGAGAGTAACATACATAATCATCCTCGGAGTCACCTAGTGCAG  28300 fluorescence intensity (a.u.)
42. CACTGGAAGCGGGGTCACTGCTCATTCAGATAGGTTCAAACGGAGTCACCTAGTGCAG  34400 fluorescence intensity (a.u.)
